Results are given in words; binding and its absence hold for the method and conditions named. In cells and extracts the contact can be indirect. Some results given as binding are weak or reduced against the parent protein; the word gives no strength.
Key:
[1] = biological target: cellular prion protein (PrP^C) (mouse (endogenous in wild type mouse brain)) (UniProt P04925); assay: co-IP
[2] = biological target: GRP78 (78-kDa glucose regulated protein) (mouse (endogenous in wild type mouse brain)) (UniProt P20029); assay: co-IP

Protein sequences, listed by entry. Tags and fused reporters are not part of them. Residues count along the entry.
UniProt P20029, residues 20-655: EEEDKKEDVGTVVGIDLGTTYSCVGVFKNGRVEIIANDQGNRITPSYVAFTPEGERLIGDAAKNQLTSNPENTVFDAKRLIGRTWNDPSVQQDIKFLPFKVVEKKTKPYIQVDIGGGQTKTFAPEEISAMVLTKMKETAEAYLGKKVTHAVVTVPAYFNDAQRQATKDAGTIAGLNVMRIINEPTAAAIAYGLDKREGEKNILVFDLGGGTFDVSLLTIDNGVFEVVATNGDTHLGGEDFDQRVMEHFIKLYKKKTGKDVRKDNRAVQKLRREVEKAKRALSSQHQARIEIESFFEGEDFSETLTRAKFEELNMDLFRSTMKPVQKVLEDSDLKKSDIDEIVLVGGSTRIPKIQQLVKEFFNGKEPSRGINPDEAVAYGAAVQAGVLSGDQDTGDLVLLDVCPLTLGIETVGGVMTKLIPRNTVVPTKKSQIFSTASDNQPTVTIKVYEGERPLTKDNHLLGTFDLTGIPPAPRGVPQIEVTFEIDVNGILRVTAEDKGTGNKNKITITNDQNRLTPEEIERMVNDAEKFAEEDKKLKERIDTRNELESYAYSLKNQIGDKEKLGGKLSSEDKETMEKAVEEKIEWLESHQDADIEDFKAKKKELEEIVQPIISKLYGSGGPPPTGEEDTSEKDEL

| Substance | binding [1] | binding [2] |
| --- | --- | --- |
| GRP78 (78-kDa glucose regulated protein) (from UniProt P20029 20-655) | binds |  |
| cellular prion protein (PrP^C) (from UniProt P04925 23-230) |  | binds |

Source: publication PMC5363067
